The record followed here is article PMC3544915.

Protein sequences, listed by entry. Tags and fused reporters are not part of them.
UniProt O59923: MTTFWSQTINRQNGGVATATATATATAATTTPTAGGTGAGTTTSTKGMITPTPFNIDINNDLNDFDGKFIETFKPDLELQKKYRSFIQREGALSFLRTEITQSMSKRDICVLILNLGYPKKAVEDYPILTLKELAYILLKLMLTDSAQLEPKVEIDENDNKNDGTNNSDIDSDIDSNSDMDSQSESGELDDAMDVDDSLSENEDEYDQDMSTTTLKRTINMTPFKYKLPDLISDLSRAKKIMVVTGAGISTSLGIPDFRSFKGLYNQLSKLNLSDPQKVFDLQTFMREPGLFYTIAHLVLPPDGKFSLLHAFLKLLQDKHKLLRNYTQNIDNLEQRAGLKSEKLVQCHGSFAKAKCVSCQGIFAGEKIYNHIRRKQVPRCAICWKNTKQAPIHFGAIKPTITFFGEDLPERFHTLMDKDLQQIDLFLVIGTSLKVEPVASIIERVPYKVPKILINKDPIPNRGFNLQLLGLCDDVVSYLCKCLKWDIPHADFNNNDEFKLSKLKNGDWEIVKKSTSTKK

Results are given in words; binding and its absence hold for the method and conditions named. Binding seen in cells or lysates may run through a third protein. Some entries that bind do so weakly or less than the wild type. Tags and fused reporters may be left off the sequences shown.

This assay has as its target Sir2 tagged with 3xHA (Candida albicans) (UniProt O59923). As to the kind of experiment: co-IP; 10 mg crude lysate of Spider-induced BW-pYPB-HX-6HF-SIR-3HA cells incubated with anti-HA agarose 2 hrs at 4°C in NP-40 buffer (50 mM NaH2PO4 pH 8.0, 150 mM NaCl, 1% Nonidet P-40); Hxk1 detected by Western blot with anti-FLAG antibody; duplicates. A general note: Immunoblotting shows a protein as a band on a membrane.

B1: CaHxk1 tagged with the 6xHis-FLAG epitope sequence, expressed under the ADH1 promoter (enzyme, UniProt Q59RW5 1-493)
chain: MTETSISGLRGPKSMYFMEIVDVSSQESSVLSSIVESFTSAVSASNLGVYSDEVLCDIKSSLKENSPITMLPNYNVSPTGDEHGQYLVIDLGGSTLRIAVVDISKPHPNLSRSERITIVVEKSWIIGNDFKRIDGEFFKYIGSKINEILMGQNVIDVKSVINTGITWSFPLETTDYNRGKIKHVSKGYTVGEDIYDKDLKMVLEDTLRQEYGLTLDVQSILNDSLAVYSAGCFIDSKMKLAMVLGTGINMCCSLKRSSDIHPSKMLADATLFNCELSLFGQNLCKDFATKYDIIIDKRFAGLSHHFKTFMEPDPITKTLFQPHELMTSGRYLPELTRLVVVDLIEAGEIFQNVDHQQMYQEYGGFSGELICFVHENDDYDDIHDKLCKAYGWTTVGLSDIVCLKEVVSCIIKRAAFIVANAIIAFFKLLGSDELGGDVTIGYVGSVLNYFHKYRRLIVEYVNSAEEAKGIKVDLKLIENSSIIGAAIGAAYHK
As to B1, the binding result is “binds”.
